The list shows a part of the results. Further columns of the screen follow, without active or inactive calls. Most of these compounds were active or inconclusive in the main read-out, so they are no random draw. The note in brackets gives the kind of curve behind each potency; many fits are weak.
Test: qHTS Assay to Find Inhibitors of Chronic Active B-Cell Receptor Signaling
Conditions: ABC-DLBCL IkBa-CBG/CBR reporter, luminescence ratio (green luciferase fused to IkBa over red control in TMD8 lymphoma cells), 4 h
In short: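 Concentration-response series (up to 46 uM) were applied to TMD8 dual-reporter cells for 4 h at 37C with doxycycline. Green/red ratio, after filter-overlap correction, defined %Activity; red signal alone was normalised to basal cells and zero luminescence.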

[1] = measured here: CBR red luminescence, cell number
[2] = measured here: IkBa-CBG green luminescence

For O=c1c(-c2ccccc2)c[nH]n1-c1cccc([N+](=O)[O-])c1, the AC50 [1] was 1.78 µM [falling, full curve].

In the case of O=C(/C=C/c1ccccc1)NC1CCCc2ccccc21 (configuration not stated), the AC50 [1] was 0.891 µM [falling, full curve, poor fit].

With CN(N=Nc1cccc([N+](=O)[O-])c1)c1cccc([N+](=O)[O-])c1 the AC50 [1] was 2.82 µM [rising, full curve].

In the case of COc1ccc(CCNC(=O)CC2SC(=NCCc3ccccc3)NC2=O)cc1OC (configuration not stated), the AC50 [1] was 2.31 µM [rising, partial curve, poor fit].

For O=C(CCCCCCCCC(=O)N/N=C/c1ccco1)N/N=C/c1ccco1, the AC50 [1] was 23.1 µM [falling, single point].

With COc1ccc(OC)c(NC(=O)CNC(=O)Cn2c(C)cc3ccccc3c2=O)c1 the AC50 [1] was 0.92 µM [falling, full curve, poor fit].

In the case of CC(O)c1cccc(NC(=O)C2CCCCC2)c1 (configuration not stated), the AC50 [1] was 35.5 µM [rising, partial curve, poor fit].

With Cc1ccc(NC(=O)/C=C/c2ccc([N+](=O)[O-])s2)c(C)c1 the AC50 [1] was 6.51 µM [falling, partial curve, poor fit].

In the case of Cc1ccsc1/C=N/NC(=O)Nc1ccccc1, the AC50 [1] was 14.1 µM [falling, single point].

For C[C@@H](C(=O)NCc1ccccc1)N1C(=O)C2CC=CCC2C1=O (some centres not stated), the AC50 [1] was 0.291 µM [rising, full curve, poor fit].

In the case of CC(C)(C)C(=O)Nc1nc(-c2ccccc2)ns1, the AC50 [1] was 7.31 µM [falling, partial curve, poor fit] and the AC50 [2] was 0.731 µM [rising, full curve].

For Cc1oc(-c2ccccc2F)nc1CN1CCC(C(=O)NCc2cccs2)CC1, the AC50 [1] was 17.8 µM [rising, partial curve, poor fit].

In the case of COc1ccc(C(=O)OCCNC(=O)c2c(Cl)nc3ccccn23)cc1, the AC50 [1] was 15.8 µM [rising, single point].

In the case of COc1cccc(OC)c1C(=O)Nc1cccc(-c2ccc3nncn3n2)c1, the AC50 [1] was 35.5 µM [rising, partial curve, poor fit].

With COc1ccc(C2=CSC3=NNC4(CCCCC4)NN23)cc1 the AC50 [1] was 35.5 µM [rising, single point].

For Nc1cc(=O)[nH]c(SCC(=O)Nc2nnc(-c3ccccc3)s2)n1, the AC50 [1] was 11.2 µM [falling, partial curve].

In the case of Cc1c(NC(=O)c2ccc3c(c2)OCO3)cccc1-c1nc2ncccc2o1, the AC50 [1] was 0.92 µM [falling, full curve].

With Cc1cc(N2CCN(C(=O)c3cccs3)CC2)c(F)cc1[N+](=O)[O-] the AC50 [1] was 35.5 µM [falling, single point].

In the case of Cc1cccc(N2CCN(CC(=O)NCc3ccc(Cl)cc3)CC2)c1C, the AC50 [1] was 11.2 µM [falling, partial curve, poor fit].

With COC(=O)CNc1c(-c2ccccn2)nc2ccc(Br)cn12 the AC50 [1] was 0.146 µM [falling, full curve, poor fit].

With CCn1c(O)c(N=NC(=O)CNc2cccc(C)c2)c2ccccc21 the AC50 [1] was 32.6 µM [falling, single point].

For CCCOc1ccc(/C=N/Nc2cccc([N+](=O)[O-])c2)c(O)c1, the AC50 [1] was 6.51 µM [rising, single point].

In the case of O=C(CC1CC2CCC1C2)Nc1nc(-c2ccccn2)cs1 (configuration not stated), the AC50 [1] was 0.891 µM [falling, full curve, poor fit] and the AC50 [2] was 3.98 µM [rising, partial curve, poor fit].

With CC(=O)NCC(=O)OCC(=O)c1ccc(Cl)cc1 the AC50 [1] was 20 µM [falling, partial curve, poor fit].

With CCOc1ccc(C=Nc2cccc3ncccc23)cc1 the AC50 [1] was 22.4 µM [falling, partial curve, poor fit].

In the case of Cc1ccc(CNC(=O)CSc2nc3n[nH]c(C)c3c(=N)n2-c2ccccc2Cl)cc1, the AC50 [1] was 2.82 µM [falling, partial curve, poor fit].

For CC(=O)c1ccc(NC(=O)N2CCN(c3cccc(Cl)c3)CC2)cc1, the AC50 [1] was 23.1 µM [falling, single point].

For CC(=O)OCCNc1cc(N2CCN(C)CC2)c2noc3c2c1C(=O)c1ccccc1-3, the AC50 [1] was 29.1 µM [falling, single point].

In the case of CCOc1cc(/C=N/NC(=O)c2cccnc2)ccc1OCC(=O)N(C)C, the AC50 [1] was 31.6 µM [falling, single point].

With COc1cnc(-c2ccccn2)nc1Oc1ccc(Cl)c2ccccc12 the AC50 [1] was 35.5 µM [rising, single point].

With CCOc1cccc(C2c3c(oc4cc(C)c(C)cc4c3=O)C(=O)N2CCCN(C)C)c1 (configuration not stated) the AC50 [1] was 14.6 µM [falling, partial curve].

For O=C(N/N=C/c1ccncc1)c1cccs1, the AC50 [1] was 14.1 µM [falling, partial curve].

In the case of COC(=O)c1ccc(OCCOc2ccc(C(=O)OC)cc2)cc1, the AC50 [1] was 29.1 µM [rising, single point].

With COc1ccc(NC(=O)c2cc([N+](=O)[O-])ccc2O)cc1 the AC50 [1] was 0.0794 µM [falling, full curve, poor fit] and the AC50 [2] was 11.2 µM [rising, partial curve, poor fit].

In the case of O=C1C2C3C=CC(CC3)C2C(=O)N1/N=C/c1ccc(O)cc1 (configuration not stated), the AC50 [1] was 0.112 µM [falling, full curve, poor fit].

With Fc1ccc(C2C3=C(Nc4ncnn42)c2ccccc2OC3c2ccncc2)cc1 (configuration not stated) the AC50 [1] was 16.4 µM [falling, single point].

For COc1ccc(N2C(=O)Cc3c2nc(N)c(C#N)c3N)cc1, the AC50 [1] was 5.01 µM [rising, partial curve, poor fit].

For CN(CCc1ccccc1)C(=O)c1cc(COc2cccc(C(F)(F)F)c2)on1, the AC50 [1] was 8.91 µM [falling, partial curve, poor fit].

With COc1cc(Cl)c(C)cc1NC(=O)CSCC#N the AC50 [1] was 14.6 µM [rising, partial curve].

With COC(=O)N/N=C/c1cc(C)n(-c2ccccc2)c1C the AC50 [1] was 18.4 µM [rising, partial curve] and the AC50 [2] was 18.4 µM [falling, partial curve, poor fit].

With Cc1oc(-c2ccccc2)cc1C(=O)Nc1cccc(/C=C\C(=O)O)c1 the AC50 [2] was 0.112 µM [rising, full curve, poor fit].

For COC(=O)c1ccc2c(C(C)(C)O)c(C(C)(C)O)[nH]c2c1, the AC50 [1] was 15.8 µM [rising, single point].

With COc1ccc(C(F)(F)F)cc1N/C=C\c1nnnn1-c1ccccc1 the AC50 [1] was 10 µM [rising, partial curve].

With CCOC(=O)c1c(NC(=O)Cn2cc([N+](=O)[O-])cn2)sc2c1CCC2 the AC50 [1] was 3.55 µM [falling, partial curve, poor fit].

For COc1ccc(C2CC3(CC(C)(C)NC(=O)N3)Oc3cc(O)ccc32)cc1 (configuration not stated), the AC50 [1] was 12.6 µM [falling, partial curve].

In the case of CC(=O)C1=C(c2ccccc2)N(C(C)=O)n2c(C)nnc2S1, the AC50 [1] was 17.8 µM [falling, single point].

For Cc1ccc(NC(=O)C(=O)c2c[nH]c3ccccc23)cc1, the AC50 [1] was 1.12 µM [falling, full curve].

In the case of Cn1c(=NCC(O)COc2ccccc2)sc2ccccc21 (configuration not stated), the AC50 [1] was 22.4 µM [falling, single point].

In the case of O=C(Nc1nc2c(F)cccc2s1)c1ccco1, the AC50 [1] was 11.2 µM [falling, partial curve].

With Cc1ccc(NC(=O)COC(=O)C2CSC3(C)CCC(=O)N23)cc1S(=O)(=O)N1CCOCC1 (configuration not stated) the AC50 [1] was 8.91 µM [rising, partial curve, poor fit].

In the case of Cc1ccc(S(=O)(=O)CC(=O)c2cc(C)c(O)c(C)c2)cc1, the AC50 [1] was 1.78 µM [rising, full curve, poor fit].

For CCCNc1c(NS(=O)(=O)c2ccc(OC)c(OC)c2)c(=O)oc2ccccc12, the AC50 [1] was 4.47 µM [falling, full curve].

With COc1ccc(/C=N/n2c(=S)n(C)c3ccccc32)cc1OC the AC50 [1] was 25.9 µM [rising, partial curve] and the AC50 [2] was 18.4 µM [falling, partial curve, poor fit].

With COC(=O)c1cc2oc(C)cc2n1CC(=O)Nc1cc(C)cc(C)c1 the AC50 [1] was 0.116 µM [falling, full curve, poor fit].

For CCCCC1=CC2=CC(=O)C(C)(OC(=O)CC)C(=O)C2=CN1CCN1CCOCC1 (configuration not stated), the AC50 [1] was 35.5 µM [rising, single point].

For COc1ccccc1NC(=O)CSc1nnc(C2CCCCC2)n1N, the AC50 [1] was 7.08 µM [falling, partial curve, poor fit].

With O=C1NC(=S)S/C1=C\c1coc2ccccc2c1=O the AC50 [1] was 3.16 µM [rising, full curve, poor fit].

For CN1C(=O)C2(SCC(=O)N2c2ccc(Cl)cc2)c2ccccc21 (configuration not stated), the AC50 [1] was 35.5 µM [falling, single point].

In the case of COc1ccc(C(CC(=O)N2CCN(c3ccccc3)CC2)c2c(O)cc(OC)cc2OC)cc1 (configuration not stated), the AC50 [1] was 35.5 µM [falling, single point].

With CC(=O)NC(Cc1ccc(C)cc1)C(=O)NC1CCN(c2ncccc2[N+](=O)[O-])CC1 (configuration not stated) the AC50 [1] was 20.6 µM [rising, partial curve, poor fit].

For COc1cccc(NC(=O)/C=C/c2ccccc2[N+](=O)[O-])c1, the AC50 [1] was 23.1 µM [falling, partial curve, poor fit].

With Cc1ccc(-n2ncc3c(SCc4ccccc4)ncnc32)cc1 the AC50 [2] was 23.1 µM [rising, partial curve, poor fit].

Source: PubChem BioAssay AID493014 (National Center for Advancing Translational Sciences (NCATS), 2011)
